# Where “and” joins values, the source holds several entries; their conditions need not be identical. Identical values can stand only once. About 17,000 (5.5%) of roughly 310,000 compounds were called active. Inconclusive results, whose numbers are uncertain, are shown with a selection of clear calls. Calls come from the whole dose curve; as a rule, active = well fitted inhibition curve with a large enough effect; inconclusive = small, poorly fitted or top-dose-only effect, or effect the other way; inactive = no such curve, though single readings can be large or run the other way. Where the call is inconclusive, the potency comes from a doubtful curve fit.
# The chains behind the UniProt entries cited, without tags or fusion partners. Where a name states a change or a piece, a line headed by the entry shows the natural chain unless it says otherwise.
# UniProt P51450: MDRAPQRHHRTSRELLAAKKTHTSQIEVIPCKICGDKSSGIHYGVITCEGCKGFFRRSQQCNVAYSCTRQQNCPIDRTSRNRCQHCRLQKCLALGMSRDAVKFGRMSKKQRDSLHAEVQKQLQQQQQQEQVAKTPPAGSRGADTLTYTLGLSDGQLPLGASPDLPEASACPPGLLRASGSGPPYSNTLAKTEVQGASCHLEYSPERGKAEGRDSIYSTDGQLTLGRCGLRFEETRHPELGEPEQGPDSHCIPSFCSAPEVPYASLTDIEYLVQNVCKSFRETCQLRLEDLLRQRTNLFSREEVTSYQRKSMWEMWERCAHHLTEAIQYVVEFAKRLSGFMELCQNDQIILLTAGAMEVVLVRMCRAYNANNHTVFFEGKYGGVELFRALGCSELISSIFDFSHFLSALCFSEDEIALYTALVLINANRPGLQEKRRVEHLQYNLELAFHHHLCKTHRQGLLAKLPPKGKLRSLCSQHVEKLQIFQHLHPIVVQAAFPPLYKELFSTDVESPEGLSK
# Target: Nuclear receptor ROR-gamma (Mus musculus) (UniProt P51450)
# Test: qHTS for inhibitors of ROR gamma transcriptional activity; note: nearly all actives have a fitted effect of over 60% in size
# Conditions: Drosophila S2 Gal4-RORgamma UAS-luciferase reporter, 20 h; activity change, negative = inhibition: at 53.6 µM (top of the series)
# How it was run: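 Read-out: Photinus luciferase luminescence; inhibitors lower reporter signal. Insect Schneider cells with Gal4-ROR gamma fusion under metallothionein promoter, UAS reporter; 700 uM final copper sulfate induction, 20 hr, ambient temperature.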
# % is set by controls: 0 for no effect and ±100 for the full control effect; potency is the fitted concentration of half-maximal effect.
Compound,Potency,"activity change, negative = inhibition"
O=C(/C=C/c1cccs1)Nc1sc2c(c1C(=O)O)CCCC2,"inconclusive: 10 µM [activator, single point]",–
Cc1noc(C)c1COC(=O)C1CC(O)CN1S(=O)(=O)c1ccc(Cl)cc1 (centres undefined),–,inactive: -3.37%
CC(C(=O)Nc1ccccc1-c1ccccc1)N(C)Cc1nc2ccccc2c(=O)[nH]1 (centres undefined),active: 14.1 µM,–
NNc1nc(-c2ccccc2)c2ccccc2n1,active: 7.94 µM,–
Cc1sc2ncnc(SCc3ccc(C(=O)O)cc3)c2c1C,–,inactive: -1.72%
COc1ccccc1OCCCCN1CCN(c2ccccc2OC)CC1,–,inactive: 12.2%
O=C(NCCCNc1ccc([N+](=O)[O-])cc1)C(F)(F)F,"inconclusive: 31.6 µM [activator, single point]",–
O=C(NCc1ccccn1)Nc1ccccc1Cl,–,inactive: 19.4%
COc1ccc2c(c1)CCc1sc(NC(=O)c3ccc(C)cc3)nc1-2,active: 0.141 µM,–
Cc1ccc(CCNC(=O)c2nnn(-c3cccc(C)c3)c2N)cc1,"inconclusive: 35.5 µM [inhibitor, single point]",–
Nc1c(C(=O)Nc2nccs2)sc2nc(-c3cccs3)cc(C(F)(F)F)c12,"inconclusive: 3.98 µM [inhibitor, full curve, poor fit]",–
CC(C)(C)OC(=O)CN1C(=O)S/C(=C\c2ccc(-c3cccc(C(=O)O)c3)o2)C1=O,"inconclusive: 0.708 µM [inhibitor, single point]",–
O=C(Nc1ncc([N+](=O)[O-])s1)C1CCN(S(=O)(=O)c2cnc[nH]2)CC1,"inconclusive: 35.5 µM [inhibitor, single point]",–
Cc1cc(OCC(=O)O/N=C(\N)c2ccccc2)ccc1Cl,"inconclusive: 11.2 µM [activator, single point]",–
O=C(c1ccccc1)N1N=C(c2ccccc2)CC1c1ccccc1O (centres undefined),active: 4.47 µM,–
O=C(Nc1nnc(S(=O)(=O)N2CCCCCC2)s1)c1ccccc1F,"inconclusive: 20 µM [activator, partial curve, poor fit]",–
COc1cccc(-c2nc(NC3CCNCC3)c3ccccc3n2)c1,–,inactive: 0.158%
Cc1cccc(C(=O)NC(=S)N2CCN(C)CC2)c1,active: 1.26 µM,–
S=c1[nH]nc(-c2ccccn2)n1/N=C/c1ccccc1,"inconclusive: 2.82 µM [inhibitor, single point]",–
COC(=O)[C@@]1(Cc2ccc(OC)cc2)[C@H]2c3cc(C(=O)N(C)C)n(CCc4ccc(OC)c(Br)c4)c3C[C@H]2CN1C(=O)c1ccccc1,"inconclusive: 25.1 µM [activator, single point] and inconclusive: 20 µM [activator, single point]",–
Cc1cccc(C)c1-n1nnnc1C(C)(C)N1CCN(N=O)CC1,–,inactive: -8.52%
Cn1c(-c2ccccc2)cc2c3no[n+]([O-])c3ccc21,active: 6.31 µM,–
COc1cccc(C(=O)NC2CCN(CC(=O)Nc3cccc(C)c3C)CC2)c1,"inconclusive: 31.6 µM [activator, single point]",–
Cc1cccnc1NC(=S)NCc1ccco1,active: 2 µM,–
C[C@H]1CC[C@@H]2N(C1)C[C@H]1[C@@H]3C[C@H]4[C@@H](C/C(=N\O)[C@H]5C[C@@H](O)CC[C@@]54C)[C@@H]3CC[C@H]1[C@]2(C)O,–,inactive: 15.5%

Compound,Potency,"activity change, negative = inhibition"
Cc1cc(N/N=C/c2ccccc2O)nc(-c2ccccc2O)n1,"inconclusive: 35.5 µM [inhibitor, single point]",–
Cc1cc(NC(=O)CSc2nc3c([nH]c4ccccc43)c(=O)n2-c2ccccc2F)no1,–,inactive: -15.2%
CC1CC2(CCCCC2)Nc2ccc3ccccc3c21 (centres undefined),"inconclusive: 35.5 µM [inhibitor, single point]",–
O=C(Nc1cccc(O)c1)c1ccccc1,–,inactive: 42.6%
Cc1cccc(/C=N/n2c(-c3ccco3)n[nH]c2=S)c1,"inconclusive: 20 µM [inhibitor, partial curve, poor fit]",–
Cc1ccc(S(=O)(=O)N(C)CCCC(=O)Nc2cc(C)ccc2C)cc1,"inconclusive: 31.6 µM [activator, single point]",–
CC(=O)c1cccc(NC(=O)c2cc(-c3ccco3)nc3ccccc23)c1,–,inactive: 3.57%
CCC(Sc1nc2ccccc2c(=O)[nH]1)C(=O)Nc1ccc(C(C)=O)cc1 (centres undefined),"inconclusive: 8.91 µM [activator, partial curve]",–
COc1ccc(C(=O)c2coc3c2C(=O)C(=O)c2ccccc2-3)cc1,active: 11.2 µM,–
O=S(=O)(NCCCN1CCOCC1)c1ccc(Cl)s1,–,inactive: 29.2%
CC(C)(CC(=O)OCC(=O)Nc1ccccc1F)CC1=NS(=O)(=O)c2ccccc2N1,–,inactive: 20.1%
O=C(N/N=C/c1ccc(-c2cccc([N+](=O)[O-])c2)o1)[C@H]1C[C@@H]1c1ccccc1,–,inactive: 21.2%
O=C(NCC1CCCO1)c1cc(-c2ccc(Cl)cc2Cl)on1 (centres undefined),"inconclusive: 35.5 µM [inhibitor, partial curve, poor fit]",–
NC1=NC(c2ccc(F)cc2)n2c(nc3ccccc32)N1 (centres undefined),–,inactive: -6.67%
COc1ccc(OC)c2[nH]c(=O)c(CCNC(=O)COc3ccccc3)cc12,–,inactive: 42.7%
Cc1ccc2ncccc2c1NC(=S)NC(=O)c1ccccc1,active: 8.91 µM,–
CCc1ccc(CNC(=O)C2CCN(c3nnc(C)c4c(C)n(-c5ccc(C)cc5)nc34)CC2)cc1,"inconclusive: 20 µM [inhibitor, single point]",–
CCCCN1c2ccccc2N(CCCO)c2cc(C)nnc21,"inconclusive: 3.98 µM [inhibitor, partial curve, poor fit]",–
CCN(CC)S(=O)(=O)c1cc(-c2nnc(-c3ccc(Br)cc3)o2)ccc1Cl,"inconclusive: 12.6 µM [activator, single point]",–
Cn1cccc1/C=N/n1c(-c2ccc(C(C)(C)C)cc2)n[nH]c1=S,active: 2.24 µM,–
Cc1cccc(N2CCN(C(=O)C3CCC(CNS(=O)(=O)c4cccs4)CC3)CC2)c1C (centres undefined),"inconclusive: 31.6 µM [inhibitor, single point]",–
CSc1ccccc1OCc1cc(C(=O)N(C)C2CCCc3ccccc32)no1 (centres undefined),–,inactive: 43.1%
CC(=O)c1c(C)[nH]c(C(=O)OC(C)C(=O)Nc2cc(S(=O)(=O)N3CCCCC3)ccc2Cl)c1C (centres undefined),"inconclusive: 35.5 µM [activator, single point]",–
NC(N)=N/N=C/c1ccc(OCc2ccc(Cl)cc2)cc1,"inconclusive: 31.6 µM [inhibitor, single point]",–
CC1CCC2(CC1)Nc1ccccc1C(=O)N2c1ccccc1 (centres undefined),"inconclusive: 25.1 µM [activator, single point]",–

Compound,Potency,"activity change, negative = inhibition"
CCCc1ccc(Oc2cn[nH]c2-c2ccc(O)c(C)c2O)cc1,"inconclusive: 35.5 µM [inhibitor, single point]",–
O=C(Nc1ccnn1C1CCN(CCCc2ccccc2)CC1)c1ccccc1,–,inactive: -1.39%
C/C=C1\COC(C(=O)NC)(C(F)(F)F)C=C1C=C1CCCCC1 (centres undefined),"inconclusive: 35.5 µM [inhibitor, single point]",–
N#Cc1ccc(C(=O)NCC(c2ccco2)N2CCCCC2)cc1 (centres undefined),–,inactive: -0.477%
O=C(N/N=C\C=C\c1ccc2c(c1)OCO2)c1cccnc1,active: 5.62 µM,–
Cc1sc2nc(CN(Cc3cccs3)C(=O)C3CC3)[nH]c(=O)c2c1C,active: 11.2 µM,–
COc1ccc(-n2c(=O)[nH]c3cc(C(=O)NCCc4ccc(Cl)cc4)ccc3c2=O)cc1OC,"inconclusive: 25.1 µM [activator, single point]",–
Oc1ccc(/C=N/Nc2ncnc3c2ncn3Cc2ccccc2)cc1O,"inconclusive: 35.5 µM [inhibitor, single point]",–
N#CCC(=N)N1CCN(c2ccc(Cl)cc2)CC1,–,inactive: 18.7%
Cc1ccc(-n2c(O)c(C=NCc3ccccn3)c3ccccc3c2=O)cc1C,active: 10 µM,–
CCOc1ccccc1Nc1nc(-c2sc(C)nc2C)cs1,active: 8.91 µM,–
Cc1ccc(S(=O)(=O)Nc2ccc3ccccc3n2)cc1,"inconclusive: 14.1 µM [activator, single point]",–
Nc1nc(COc2ccccc2)cs1,"inconclusive: 6.31 µM [activator, full curve]",–
O=[N+]([O-])c1ccccc1S(=O)(=O)NC1CCCCCCC1,"inconclusive: 12.6 µM [activator, partial curve]",–
Cc1cc(C)c2nc(C(F)(F)F)c(C#N)c(N)c2c1,"inconclusive: 0.398 µM [inhibitor, single point]",–
N#CC1CC(c2ccccc2)Nc2cc(Cl)ccc2N1 (centres undefined),"inconclusive: 35.5 µM [inhibitor, single point]",–
Cc1ccc(-c2nnc(SCC(=O)N3CC(C)CC(C)C3)o2)cc1C (centres undefined),"inconclusive: 35.5 µM [activator, single point]",–
COc1ccc(Cn2c(S(=O)(=O)CC(N)=O)nc3ccccc32)cc1[N+](=O)[O-],"inconclusive: 35.5 µM [activator, single point]",–
Cc1ccc(NC(=O)Cn2nnc(C(=O)NCc3ccc(Cl)cc3)c2N)cc1F,–,inactive: -15.3%
Brc1ccc(-c2cn3ccccc3n2)cc1,–,inactive: -16%
Cc1oc2ccc(NS(=O)(=O)c3cccc4cccnc34)cc2c1C(=O)OC(C)C,"inconclusive: 0.0032 µM [inhibitor, full curve, poor fit]",–
Cc1cc(C(F)(F)F)nn1Cc1n[nH]c(=S)n1-c1cccc(Cl)c1,active: 11.2 µM,–
Cc1ccnc(NC(=O)CCCOc2cc(=O)n(C)c3ccccc23)c1,"inconclusive: 12.6 µM [activator, partial curve, poor fit]",–
O=C(NC(=S)Nc1ccc(Cc2ccncc2)cc1)c1ccccc1F,"inconclusive: 35.5 µM [inhibitor, single point]",–
